Assay results reported in article PMC9440028 (Scientific Reports, 2022).
Strings that start with PEPTIDE1 are HELM notation: dots part the residues, brackets hold end groups and non-standard residues.

Assay: general procedure: Fmoc solid-phase peptide synthesis; HBTU/HOBt/DIPEA
Conditions: hydrotrifluoroacetate (TFA salt); for final HPLC purity: 220 nm
[1] = whole synthesis, scale 0.060 mmol
[2] = whole synthesis, scale 0.081 mmol
[3] = whole synthesis, scale 0.034 mmol
[4] = whole synthesis, scale 0.158 mmol

| Substance | final HPLC purity (whole synthesis) | final HPLC purity (conjugation step) | conjugation yield (conjugation step) | also measured |
| --- | --- | --- | --- | --- |
| PEPTIDE1{[XNMeRh0fabbf].[XArgMh944cee].P.Y.[XTlehafc99a].L}$$$$V2.0 | > 99% | – | – | isolated mass [1]: 44 mg; isolated yield [1]: 57% |
| PEPTIDE1{[XArgMhd0e5d3].R.P.Y.[XTlehafc99a].L}$$$$V2.0 | – | – | – | final HPLC purity (late stage modification step): 96%; step yield (late stage modification step): 59% |
| PEPTIDE1{R.[XArgMh944cee].P.Y.[XTlehafc99a].L}$$$$V2.0 | > 99% | – | – | isolated mass [2]: 38.7 mg; isolated yield [2]: 37% |
| PEPTIDE1{R.[XArgMh7cee8a].P.Y.[XTlehafc99a].L}$$$$V2.0 | – | > 99% | 77% | – |
| PEPTIDE1{[XArgMh944cee].R.P.Y.[XTlehafc99a].L}$$$$V2.0 | > 99% | – | – | isolated mass [3]: 16.9 mg; isolated yield [3]: 39% |
| PEPTIDE1{[XArgMh7cee8a].R.P.Y.[XTlehafc99a].L}$$$$V2.0 | – | > 99% | 45% | – |
| PEPTIDE1{[XArgMh072038].R.P.Y.[XTlehafc99a].L}$$$$V2.0 | – | – | – | final HPLC purity (late stage modification step): 99%; step yield (late stage modification step): 90% |
| PEPTIDE1{[XNMeRh0fabbf].[XArgMh7cee8a].P.Y.[XTlehafc99a].L}$$$$V2.0 | – | 98% | 68% | – |
| PEPTIDE1{[XArgMhea3a9e].R.P.Y.[XTlehafc99a].L}$$$$V2.0 | 98% | – | – | isolated yield (whole synthesis, overall, scale 0.2212 mmol): 45%; isolated mass (whole synthesis, scale 0.2212 mmol): 139.5 mg |
| PEPTIDE1{[XArgMh107bc3].R.P.Y.[XTlehafc99a].L}$$$$V2.0 | – | 98% | 79% | – |
| PEPTIDE1{[XArgMh14679e].R.P.Y.[XTlehafc99a].L}$$$$V2.0 | 95% | – | – | final HPLC purity (purification step): 97%; isolated mass [4]: 108.1 mg; isolated yield [4]: 49% |
| PEPTIDE1{[XArgMh9d1d49].R.P.Y.[XTlehafc99a].L}$$$$V2.0 | – | > 99% | 25% | – |
